The target in experiment [1] is T1, PbLRR1-mCherry (endogenous PbLRR1 fused to a C-terminal mCherry tag) (P. berghei).
T1 sequence: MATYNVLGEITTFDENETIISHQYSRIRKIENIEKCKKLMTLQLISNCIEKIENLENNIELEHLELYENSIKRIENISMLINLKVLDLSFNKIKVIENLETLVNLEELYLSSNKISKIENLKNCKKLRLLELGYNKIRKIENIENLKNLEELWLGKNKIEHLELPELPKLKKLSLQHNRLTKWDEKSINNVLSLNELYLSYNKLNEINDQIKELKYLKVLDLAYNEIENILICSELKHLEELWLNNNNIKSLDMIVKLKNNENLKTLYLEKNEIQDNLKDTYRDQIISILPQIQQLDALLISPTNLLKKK
Kind of experiment: affinity purification with mass spectrometry; RFP-Trap beads on soluble extracts of activated gametocytes of the PbLRR1-mCherry line, parental wild type as control; three biological replicates; t-test, FDR < 0.01, S0 = 1.

Chains of the proteins cited; added tags and fusions are not shown. Lines headed by an entry give the natural chain unless they say otherwise; changes in a name come on top.
UniProt A0A509AL46: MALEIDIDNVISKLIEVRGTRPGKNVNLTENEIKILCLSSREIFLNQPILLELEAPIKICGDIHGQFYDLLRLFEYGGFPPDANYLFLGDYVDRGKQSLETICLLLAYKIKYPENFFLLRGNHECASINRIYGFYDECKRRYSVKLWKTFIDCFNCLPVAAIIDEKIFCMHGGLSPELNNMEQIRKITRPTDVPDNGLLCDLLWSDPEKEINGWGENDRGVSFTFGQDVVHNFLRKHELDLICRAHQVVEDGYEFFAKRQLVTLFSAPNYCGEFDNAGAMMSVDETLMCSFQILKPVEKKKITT
UniProt A0A509AG56: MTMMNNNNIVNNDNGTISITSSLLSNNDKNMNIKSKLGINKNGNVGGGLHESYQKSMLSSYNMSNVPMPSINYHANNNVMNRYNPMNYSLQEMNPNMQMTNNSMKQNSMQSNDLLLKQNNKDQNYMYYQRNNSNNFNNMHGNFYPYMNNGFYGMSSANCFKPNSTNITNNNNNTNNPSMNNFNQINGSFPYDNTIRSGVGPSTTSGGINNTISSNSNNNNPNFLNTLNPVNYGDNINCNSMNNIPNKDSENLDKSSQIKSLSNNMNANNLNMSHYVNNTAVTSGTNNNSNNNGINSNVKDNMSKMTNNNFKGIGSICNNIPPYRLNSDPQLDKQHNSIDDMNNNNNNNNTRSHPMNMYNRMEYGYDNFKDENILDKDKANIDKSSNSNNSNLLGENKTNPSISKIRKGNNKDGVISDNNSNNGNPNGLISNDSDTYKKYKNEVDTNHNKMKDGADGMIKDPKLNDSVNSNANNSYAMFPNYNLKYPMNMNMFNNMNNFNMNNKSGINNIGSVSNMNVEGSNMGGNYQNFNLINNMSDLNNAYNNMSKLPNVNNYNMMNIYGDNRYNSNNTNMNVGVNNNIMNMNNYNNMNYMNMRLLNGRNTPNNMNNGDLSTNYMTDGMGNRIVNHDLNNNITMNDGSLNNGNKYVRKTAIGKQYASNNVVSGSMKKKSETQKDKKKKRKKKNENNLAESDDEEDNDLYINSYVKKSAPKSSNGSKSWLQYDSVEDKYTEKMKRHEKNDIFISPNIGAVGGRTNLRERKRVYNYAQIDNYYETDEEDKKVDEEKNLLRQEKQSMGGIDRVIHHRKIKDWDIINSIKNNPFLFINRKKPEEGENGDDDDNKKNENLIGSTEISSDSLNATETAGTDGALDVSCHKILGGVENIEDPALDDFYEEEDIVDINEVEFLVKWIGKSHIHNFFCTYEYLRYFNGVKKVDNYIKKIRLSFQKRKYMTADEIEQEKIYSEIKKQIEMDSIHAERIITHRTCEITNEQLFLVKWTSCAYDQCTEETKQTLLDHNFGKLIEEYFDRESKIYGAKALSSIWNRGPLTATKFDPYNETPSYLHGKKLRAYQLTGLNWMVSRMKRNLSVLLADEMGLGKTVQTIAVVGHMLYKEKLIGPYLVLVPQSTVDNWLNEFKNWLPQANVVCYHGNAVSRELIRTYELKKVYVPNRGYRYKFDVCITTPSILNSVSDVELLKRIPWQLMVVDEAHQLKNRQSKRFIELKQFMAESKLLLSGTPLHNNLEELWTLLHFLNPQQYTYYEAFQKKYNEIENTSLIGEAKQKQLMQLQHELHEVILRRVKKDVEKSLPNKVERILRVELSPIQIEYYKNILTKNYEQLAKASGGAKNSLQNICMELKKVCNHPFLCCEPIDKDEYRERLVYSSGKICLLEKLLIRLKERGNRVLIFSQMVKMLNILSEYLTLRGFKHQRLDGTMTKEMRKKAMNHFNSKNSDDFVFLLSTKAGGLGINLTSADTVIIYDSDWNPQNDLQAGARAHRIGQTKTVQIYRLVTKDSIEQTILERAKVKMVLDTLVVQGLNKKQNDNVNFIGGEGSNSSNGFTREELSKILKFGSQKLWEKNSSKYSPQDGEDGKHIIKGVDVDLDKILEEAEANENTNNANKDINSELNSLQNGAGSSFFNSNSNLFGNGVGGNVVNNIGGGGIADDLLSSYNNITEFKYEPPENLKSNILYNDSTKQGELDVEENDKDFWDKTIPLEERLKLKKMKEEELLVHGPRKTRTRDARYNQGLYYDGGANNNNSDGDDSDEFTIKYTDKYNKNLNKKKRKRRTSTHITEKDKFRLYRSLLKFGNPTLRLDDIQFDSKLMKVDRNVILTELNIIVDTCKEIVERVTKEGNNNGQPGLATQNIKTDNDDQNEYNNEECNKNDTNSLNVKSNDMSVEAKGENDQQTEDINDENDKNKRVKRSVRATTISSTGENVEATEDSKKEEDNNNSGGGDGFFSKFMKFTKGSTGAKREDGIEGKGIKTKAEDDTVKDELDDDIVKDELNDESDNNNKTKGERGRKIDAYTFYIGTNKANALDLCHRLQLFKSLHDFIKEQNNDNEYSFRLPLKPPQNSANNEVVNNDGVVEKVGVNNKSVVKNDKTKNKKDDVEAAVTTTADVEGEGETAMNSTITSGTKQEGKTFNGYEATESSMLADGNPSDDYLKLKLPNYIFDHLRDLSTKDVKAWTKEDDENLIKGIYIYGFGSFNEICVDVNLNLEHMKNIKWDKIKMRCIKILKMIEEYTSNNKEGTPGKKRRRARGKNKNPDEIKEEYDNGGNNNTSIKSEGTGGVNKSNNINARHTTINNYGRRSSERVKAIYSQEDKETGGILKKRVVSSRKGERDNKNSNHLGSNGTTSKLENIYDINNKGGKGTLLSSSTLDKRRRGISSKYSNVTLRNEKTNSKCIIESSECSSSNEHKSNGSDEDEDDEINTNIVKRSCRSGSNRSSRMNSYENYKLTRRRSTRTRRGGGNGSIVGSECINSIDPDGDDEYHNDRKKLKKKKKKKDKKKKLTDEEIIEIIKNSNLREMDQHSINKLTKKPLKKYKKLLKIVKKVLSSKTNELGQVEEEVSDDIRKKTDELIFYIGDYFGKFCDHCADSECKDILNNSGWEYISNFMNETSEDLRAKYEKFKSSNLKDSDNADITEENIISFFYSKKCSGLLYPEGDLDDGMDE
UniProt A0A509AJP0: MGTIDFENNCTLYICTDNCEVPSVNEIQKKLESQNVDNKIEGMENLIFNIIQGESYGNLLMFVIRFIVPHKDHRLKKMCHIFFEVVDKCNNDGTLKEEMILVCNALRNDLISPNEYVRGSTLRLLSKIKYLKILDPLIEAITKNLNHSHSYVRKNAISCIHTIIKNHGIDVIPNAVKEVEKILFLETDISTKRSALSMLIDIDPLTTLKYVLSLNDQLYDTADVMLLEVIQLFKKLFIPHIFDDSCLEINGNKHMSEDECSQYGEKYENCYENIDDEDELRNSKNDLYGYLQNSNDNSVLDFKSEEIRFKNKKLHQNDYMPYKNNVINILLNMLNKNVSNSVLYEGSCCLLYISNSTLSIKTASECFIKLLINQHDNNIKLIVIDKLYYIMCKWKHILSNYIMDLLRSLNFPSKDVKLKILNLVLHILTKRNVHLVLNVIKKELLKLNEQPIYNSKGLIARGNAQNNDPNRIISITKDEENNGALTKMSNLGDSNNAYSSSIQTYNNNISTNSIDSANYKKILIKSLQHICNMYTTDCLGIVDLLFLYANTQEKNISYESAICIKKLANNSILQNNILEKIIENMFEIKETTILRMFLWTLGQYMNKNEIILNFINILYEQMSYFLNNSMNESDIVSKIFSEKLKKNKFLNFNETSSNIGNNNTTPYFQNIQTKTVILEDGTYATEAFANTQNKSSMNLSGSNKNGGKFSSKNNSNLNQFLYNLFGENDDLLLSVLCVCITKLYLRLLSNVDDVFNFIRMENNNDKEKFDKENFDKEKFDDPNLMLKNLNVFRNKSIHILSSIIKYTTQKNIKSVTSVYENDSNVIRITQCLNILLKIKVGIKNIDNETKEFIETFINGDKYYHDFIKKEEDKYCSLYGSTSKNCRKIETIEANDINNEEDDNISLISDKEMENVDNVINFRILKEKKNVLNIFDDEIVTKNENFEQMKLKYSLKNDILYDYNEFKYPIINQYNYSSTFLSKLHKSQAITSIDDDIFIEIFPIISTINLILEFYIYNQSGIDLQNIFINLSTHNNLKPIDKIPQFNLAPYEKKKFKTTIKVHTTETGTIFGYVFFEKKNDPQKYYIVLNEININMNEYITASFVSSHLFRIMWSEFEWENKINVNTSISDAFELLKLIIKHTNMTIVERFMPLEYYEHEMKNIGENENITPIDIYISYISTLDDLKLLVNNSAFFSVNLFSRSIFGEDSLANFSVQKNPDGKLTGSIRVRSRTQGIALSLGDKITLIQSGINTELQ

For experiment [2] the target is unchanged. The experiment in a line: affinity purification with mass spectrometry; RFP-Trap beads on soluble extracts of zygotes of the PbLRR1-mCherry line, parental wild type as control; three biological replicates; t-test, FDR < 0.01, S0 = 1.

Consider 6 substances from PMC9346556.

These are yes or no findings as the source states them, for the method shown. Binding seen in cells or lysates may run through a third protein. A yes stands for co-enrichment or nearness to the bait. Other partners may have been found. Tags and fused reporters may be left off the sequences shown.

In the case of “PbPP1c, endogenous (Plasmodium berghei protein phosphatase 1 catalytic subunit) (from UniProt A0A509AL46 1-304) (enzyme)”, the binding result in experiment [1] and in experiment [2] was “binds” in each case.
As to ISP1 (inner membrane complex protein), the binding result in experiment [1] is “binds”.
Still for that read-out and setting: with “PBANKA_0508100 (from UniProt A0A509AG56 1-2673)” the entry was “binds”; with PP1c protein inhibitor 3 (PbI3), “binds”.
With “PBANKA_01014900 (from UniProt A0A509AJP0)”, the binding result in experiment [1] and in experiment [2] was “binds” throughout.
For PbGEP (Gamete Egress Protein), the binding entry in experiment [1] is given as “binds”.
